Article doi:10.1101/843219
No constants are given. Whether binding was seen depends on the method and setting. Binding seen in cells or lysates may run through a third protein. Some binding calls cover weakened binding; strength is not graded here.

Protein sequences, listed by entry. Tags and fused reporters are not part of them.
UniProt Q6ZPE2: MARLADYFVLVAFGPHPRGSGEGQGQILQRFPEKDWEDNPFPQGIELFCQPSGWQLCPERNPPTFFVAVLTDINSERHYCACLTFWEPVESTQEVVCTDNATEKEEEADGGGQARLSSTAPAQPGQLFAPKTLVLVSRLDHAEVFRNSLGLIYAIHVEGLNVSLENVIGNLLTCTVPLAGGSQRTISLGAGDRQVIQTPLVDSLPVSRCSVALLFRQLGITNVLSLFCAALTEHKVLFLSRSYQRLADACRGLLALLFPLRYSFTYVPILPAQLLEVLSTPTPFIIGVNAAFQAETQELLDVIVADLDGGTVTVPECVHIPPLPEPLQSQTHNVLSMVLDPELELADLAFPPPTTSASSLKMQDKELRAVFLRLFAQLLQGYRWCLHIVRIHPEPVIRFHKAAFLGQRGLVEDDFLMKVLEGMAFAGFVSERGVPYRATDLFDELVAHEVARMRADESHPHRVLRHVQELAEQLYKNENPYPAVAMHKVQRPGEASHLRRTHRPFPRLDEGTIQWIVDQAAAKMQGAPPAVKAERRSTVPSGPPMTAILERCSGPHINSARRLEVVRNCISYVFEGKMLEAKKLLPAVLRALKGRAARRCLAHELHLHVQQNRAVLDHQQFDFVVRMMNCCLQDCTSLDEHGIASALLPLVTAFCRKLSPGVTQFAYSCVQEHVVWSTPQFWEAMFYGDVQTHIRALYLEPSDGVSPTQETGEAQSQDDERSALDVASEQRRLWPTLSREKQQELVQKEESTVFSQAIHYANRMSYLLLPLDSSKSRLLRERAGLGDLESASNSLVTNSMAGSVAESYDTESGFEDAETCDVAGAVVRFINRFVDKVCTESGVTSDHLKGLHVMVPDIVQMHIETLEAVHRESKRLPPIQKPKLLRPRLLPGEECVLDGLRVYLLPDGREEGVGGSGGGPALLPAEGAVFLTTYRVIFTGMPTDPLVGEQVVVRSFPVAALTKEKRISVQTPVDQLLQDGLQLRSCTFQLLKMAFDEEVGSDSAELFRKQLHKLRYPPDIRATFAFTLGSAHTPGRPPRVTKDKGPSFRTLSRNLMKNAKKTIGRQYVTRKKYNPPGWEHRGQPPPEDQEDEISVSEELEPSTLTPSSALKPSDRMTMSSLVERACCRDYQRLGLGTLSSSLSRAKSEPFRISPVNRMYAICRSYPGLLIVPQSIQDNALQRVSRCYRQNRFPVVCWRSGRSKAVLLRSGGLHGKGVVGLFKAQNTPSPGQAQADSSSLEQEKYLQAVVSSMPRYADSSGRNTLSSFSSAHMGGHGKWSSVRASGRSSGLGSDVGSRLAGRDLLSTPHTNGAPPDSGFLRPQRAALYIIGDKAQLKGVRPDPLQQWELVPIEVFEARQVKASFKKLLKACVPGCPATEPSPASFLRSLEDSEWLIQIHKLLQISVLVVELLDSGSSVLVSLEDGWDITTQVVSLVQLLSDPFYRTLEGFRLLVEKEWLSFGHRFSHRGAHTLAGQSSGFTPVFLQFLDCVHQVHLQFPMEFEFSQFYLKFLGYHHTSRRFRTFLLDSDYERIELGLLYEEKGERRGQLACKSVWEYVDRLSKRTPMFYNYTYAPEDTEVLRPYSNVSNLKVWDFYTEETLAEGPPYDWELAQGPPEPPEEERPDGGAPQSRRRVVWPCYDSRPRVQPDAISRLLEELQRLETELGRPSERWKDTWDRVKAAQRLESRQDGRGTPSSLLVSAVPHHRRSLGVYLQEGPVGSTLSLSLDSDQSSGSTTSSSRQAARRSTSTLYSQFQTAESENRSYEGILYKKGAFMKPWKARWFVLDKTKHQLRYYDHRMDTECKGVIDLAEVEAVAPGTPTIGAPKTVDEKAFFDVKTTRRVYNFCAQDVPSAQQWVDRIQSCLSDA
UniProt E9PXF8: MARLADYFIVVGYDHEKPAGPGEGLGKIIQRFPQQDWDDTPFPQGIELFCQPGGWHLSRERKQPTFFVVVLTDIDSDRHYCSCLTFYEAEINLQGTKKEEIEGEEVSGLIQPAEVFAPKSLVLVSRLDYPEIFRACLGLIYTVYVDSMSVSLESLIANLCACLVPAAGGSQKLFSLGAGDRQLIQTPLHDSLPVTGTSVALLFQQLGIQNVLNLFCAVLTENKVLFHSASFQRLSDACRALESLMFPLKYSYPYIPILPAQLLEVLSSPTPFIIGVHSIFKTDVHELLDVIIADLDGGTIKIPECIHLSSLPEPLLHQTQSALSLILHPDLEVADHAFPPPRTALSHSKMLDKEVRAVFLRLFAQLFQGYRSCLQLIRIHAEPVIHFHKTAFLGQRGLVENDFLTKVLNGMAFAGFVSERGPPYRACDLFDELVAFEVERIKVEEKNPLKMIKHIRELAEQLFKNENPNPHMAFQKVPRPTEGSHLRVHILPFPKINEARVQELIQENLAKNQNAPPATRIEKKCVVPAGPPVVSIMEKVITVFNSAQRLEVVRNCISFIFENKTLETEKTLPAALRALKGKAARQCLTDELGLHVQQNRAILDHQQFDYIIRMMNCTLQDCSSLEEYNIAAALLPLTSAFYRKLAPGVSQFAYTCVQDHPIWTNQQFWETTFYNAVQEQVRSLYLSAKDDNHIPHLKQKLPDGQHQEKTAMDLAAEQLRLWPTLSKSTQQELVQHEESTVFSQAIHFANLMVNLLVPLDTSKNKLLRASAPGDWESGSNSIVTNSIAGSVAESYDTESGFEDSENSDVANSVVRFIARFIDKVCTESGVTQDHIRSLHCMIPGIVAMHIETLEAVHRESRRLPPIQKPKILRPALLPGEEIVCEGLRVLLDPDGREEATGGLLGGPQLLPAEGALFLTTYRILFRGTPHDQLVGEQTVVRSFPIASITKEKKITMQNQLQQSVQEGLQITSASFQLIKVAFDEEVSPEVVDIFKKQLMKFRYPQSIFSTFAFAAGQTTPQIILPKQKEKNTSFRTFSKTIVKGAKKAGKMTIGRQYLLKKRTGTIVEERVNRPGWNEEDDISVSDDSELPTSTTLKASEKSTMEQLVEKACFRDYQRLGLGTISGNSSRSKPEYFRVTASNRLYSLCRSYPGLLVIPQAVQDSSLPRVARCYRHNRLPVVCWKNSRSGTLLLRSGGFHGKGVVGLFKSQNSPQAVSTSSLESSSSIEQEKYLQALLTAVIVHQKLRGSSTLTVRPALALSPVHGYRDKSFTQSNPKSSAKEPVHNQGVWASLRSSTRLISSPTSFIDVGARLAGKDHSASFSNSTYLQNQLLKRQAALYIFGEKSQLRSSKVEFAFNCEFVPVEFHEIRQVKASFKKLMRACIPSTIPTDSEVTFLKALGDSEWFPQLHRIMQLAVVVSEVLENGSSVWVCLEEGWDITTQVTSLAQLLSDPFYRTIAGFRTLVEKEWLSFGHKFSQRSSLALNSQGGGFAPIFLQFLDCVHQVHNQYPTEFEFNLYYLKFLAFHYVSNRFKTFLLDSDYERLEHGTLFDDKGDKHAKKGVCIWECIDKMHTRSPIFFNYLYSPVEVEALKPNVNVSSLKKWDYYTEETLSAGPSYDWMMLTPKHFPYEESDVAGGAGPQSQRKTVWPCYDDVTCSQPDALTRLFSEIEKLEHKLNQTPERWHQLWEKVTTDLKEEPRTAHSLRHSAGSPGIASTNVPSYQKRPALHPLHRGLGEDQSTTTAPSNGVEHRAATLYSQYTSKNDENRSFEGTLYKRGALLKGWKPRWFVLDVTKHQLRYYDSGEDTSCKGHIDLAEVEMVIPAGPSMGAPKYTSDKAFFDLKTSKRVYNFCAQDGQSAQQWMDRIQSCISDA

Molecular target: Mtmr5 (endogenous, mouse brain) (mouse (endogenous in brain)) (UniProt Q6ZPE2)
Assay: co-IP

## Mtmr13 (endogenous, mouse brain) (from UniProt E9PXF8 1-1872)
  binding: binds weakly
